## Library screening results

The chains behind the UniProt entries cited, without tags or fusion partners.
UniProt E9BF75, entry or part of it: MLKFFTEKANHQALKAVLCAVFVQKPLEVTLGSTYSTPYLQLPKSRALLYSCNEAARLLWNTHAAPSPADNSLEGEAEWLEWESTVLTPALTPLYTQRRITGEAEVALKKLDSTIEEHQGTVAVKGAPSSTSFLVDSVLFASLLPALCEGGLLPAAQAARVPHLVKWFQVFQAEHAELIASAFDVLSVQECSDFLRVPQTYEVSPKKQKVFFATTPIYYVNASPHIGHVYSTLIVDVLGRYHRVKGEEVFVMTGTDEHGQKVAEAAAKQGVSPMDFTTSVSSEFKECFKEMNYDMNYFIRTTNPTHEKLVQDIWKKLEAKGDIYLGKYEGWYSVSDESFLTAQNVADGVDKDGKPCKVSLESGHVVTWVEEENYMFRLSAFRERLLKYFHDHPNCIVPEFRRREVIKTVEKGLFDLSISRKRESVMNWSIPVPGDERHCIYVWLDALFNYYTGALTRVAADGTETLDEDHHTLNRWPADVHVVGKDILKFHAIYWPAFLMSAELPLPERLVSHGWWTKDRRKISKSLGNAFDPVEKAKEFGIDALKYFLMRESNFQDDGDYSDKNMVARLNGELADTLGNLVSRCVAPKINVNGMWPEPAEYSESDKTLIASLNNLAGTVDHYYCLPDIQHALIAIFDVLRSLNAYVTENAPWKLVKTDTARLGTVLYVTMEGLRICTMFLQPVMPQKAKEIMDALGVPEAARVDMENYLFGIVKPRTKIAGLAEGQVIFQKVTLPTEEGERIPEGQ

Data taken from ChEMBL document CHEMBL3988442, “University of Dundee, Small-Polar-MMV Screening Library” (2021).

All values are in %. The record does not define 0% and 100%; most values in the screen are far below 50% and negative numbers occur (in some assays of this library far below -100). This is an unselected part of the compounds tested. A dash means the value is not listed here; it may have been measured.

LdMetRS: 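Methionyl-tRNA synthetase (putative), Leishmania donovani (UniProt E9BF75). Primary screen of methionyl-tRNA synthetase; the read-out is not stated. The test concentration is not given. The values are filed as inhibition. Size under these conditions: about 68,000 compounds, about 24 of them at 50% or above in at least one test.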
Mtb heat-shock: 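Assay on Mycobacterium tuberculosis, filed only as a heat shock assay from Cornell; the read-out is not stated. The concentration is filed as 10 mM, unlikely as a test dose, so the dose is not known. Direction is inferred from retests: higher values go with stronger inhibition. Size under these conditions: about 69,000 compounds, about 930 of them at 50% or above in at least one test.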

Compound	LdMetRS	Mtb heat-shock
O=C(O)C(F)(F)F.[H][C@]12CCN(c3cccc(C)n3)C[C@@]1([H])OCCN(C(=O)c1ccco1)C2	-	6.087
O=C(NCC1(O)CCCC1)c1ccc2nsnc2c1	13.8	20.21
COc1cccc(-c2n[nH]c3c2CN(C(=O)c2cc(C)n(C)n2)CC3)c1	4.337	13.52
Cc1ccc(C(=O)N2CCO[C@H]3[C@H](OCCN(C)C)CC[C@@H]32)o1	7.534	-
CC(=O)N1CCN(CC2CCOc3ccccc3C2)CC1 (centres unmarked)	6.195	7.746
Cc1cn2c(n1)CCC(NC(=O)CCC1CC1)C2 (centres unmarked)	12.73	-24.07
O=C(O)C(F)(F)F.O=c1ccc2c([nH]1)CCC(NCc1ccc3c(c1)OCO3)C2 (centres unmarked)	-	-29.18
O=C(NCCc1nccs1)C1CCCN(Cc2ccco2)C1 (centres unmarked)	3.352	-3.025
COc1cccc(CN2CCC3(CCN(C(=O)C4CC=CC4)CC3)C2)c1.O=C(O)C(F)(F)F	-	-21.44
Cc1nc(CNC(=O)N2CCN(c3ccc(Cl)cn3)CC2)sc1C	20.16	-5.364
O=C(NC1CC(=O)N(C2Cc3ccccc3C2)C1)c1csnn1 (centres unmarked)	13.25	5.478
O=C(O)C(F)(F)F.[H][C@@]12CCCO[C@]1([H])[C@H](N(C)C)CN2C(=O)Cc1ccsc1	-	1.941
CN1CCCC(c2cccc(CCC(N)=O)n2)C1 (centres unmarked)	15.62	0.04324
Cc1nn(C)c(Cl)c1C1CCCN1Cc1nnc(C2CC2)o1 (centres unmarked)	9.714	5.107
CCC(C)(C)NC(=O)c1ccc(NC(=O)NCc2cc(C)on2)cc1	17.03	7.543
Cc1csc(N2CCN(C(=O)C(C)n3cncn3)CC2)n1 (centres unmarked)	6.704	-3.173
O=C(c1cc(Cl)cc(Cl)c1)N1CCN(c2nccs2)CC1	5.419	2.274
Cc1cnn(CC2CCCN2Cc2nnc(C3CC3)n2C)c1 (centres unmarked)	18.03	10.04
Cc1cccc(C(=O)N2CC[C@@H]3CN(c4ncccn4)CCO[C@@H]3C2)c1	8.955	-
Cc1nnc(N2CCCC3(CN(Cc4cccnc4)CCO3)C2)o1 (centres unmarked)	13.75	-
Cn1cnnc1C1CCCN(C(=O)c2n[nH]c3ccccc23)C1 (centres unmarked)	13.89	-5.329
CCOc1ccccc1CC(=O)N1C[C@H](C2CC2)[C@@H](N)C1	12.77	0.9356
Cn1cccc1C(=O)NCc1cn2c(n1)CN(Cc1ccccn1)CC2	8.242	-
CCOC1COC2(CCN(Cc3cccnc3OC)CC2)C1 (centres unmarked)	4.372	-
CCC1(CO)CCCN(C(=O)c2ccc(N3CCN(C)CC3)cc2)C1 (centres unmarked)	15.33	7.413
CN1C(=O)CC[C@@H]2[C@H]1CCN2S(=O)(=O)Cc1ccccc1	-1.875	-
N#Cc1c(F)cccc1Nc1cnn(CC(=O)N2CCOCC2)c1	-1.796	-11.02
CNc1[nH]nc(N)c1C(=O)Nc1ccccc1	1.133	-36.54
O=C(CN1CCC(c2ccnn2CCO)CC1)NCc1ccco1	8.732	-19.62
O=C1CC(N(C(=O)c2ccc3[nH]c4c(c3c2)CCCC4)C2CC2)C(=O)N1 (centres unmarked)	8.92	26.24
Cc1nn(CCNS(=O)(=O)NCc2ccccc2)c(C)c1Cl	11.93	14.08
CCc1nc(C)ncc1C(=O)N1CC(C)CN(C)c2ccccc21 (centres unmarked)	20.64	-20.5
CCn1cc(NC(=O)NCCN2CCCCCC2=O)cn1	8.123	6.755
CCn1ncc2c1C(COC)N(C(=O)CCc1ccccc1)CC2.O=C(O)C(F)(F)F (centres unmarked)	-	-8.374
CC(C)OCc1nn(C)c2c1CCN(CC1CC1)C2.O=C(O)C(F)(F)F	-	29.84
Cc1ccc([C@]2(O)CC[C@H]3CN(Cc4cccc(Cl)c4Cl)C[C@H]32)nc1	16.1	-
COc1cccc(C(=O)N2CCCC(C(=O)CCc3ccccc3)C2)c1 (centres unmarked)	10.34	10.77
COC[C@H]1CCC[C@H]1Nc1ncnc2c1CCNCC2	14.11	4.87
CNC(=O)CN1CCOCC2(C1)CN(Cc1csnn1)CCO2 (centres unmarked)	-0.5602	-22.29
CC(C)N(C)Cc1cn2c(n1)CN(C(=O)Cc1ccsc1)CC2.O=C(O)C(F)(F)F	-	5.283
CCN1CCC(NC(=O)CN2CCCC2Cn2nc(C)nc2C)CC1 (centres unmarked)	9.036	-2.8
CC(C)CN1CCC(NCCNc2cccnc2)CC1	13.24	-0.4422
Cc1nn2c(NCC(N)=O)cc(-c3ccccc3)nc2c1C	-2.41	8.676
Cc1cc(C)n(CC(=O)N2CCCCC2CCc2cccs2)c(=O)n1 (centres unmarked)	21.49	0.7035
CCc1nnc(CN(C)c2nc(C3CCCC3)nc3c2cnn3C)o1	15.04	-3.006
COCC(=O)N1CC[C@]2(O)CCN(C(=O)CCc3ccsc3)C[C@@H]2C1	9.677	-
Cn1c(SCc2noc(-c3ccsc3)n2)nnc1C1CCS(=O)(=O)C1 (centres unmarked)	-0.2639	-0.3881
CC(C)N1CCC2(CC1)CC(NCc1ccccn1)c1ccccc1O2.O=C(O)C(F)(F)F.O=C(O)C(F)(F)F.O=C(O)C(F)(F)F (centres unmarked)	-	-21.29
CCc1cc(N2CCNCC2)n2nc(C)c(C)c2n1	13.77	-13.02
O=C(O)C(F)(F)F.O=C(c1ccco1)N1CCCC2(CN(Cc3cccs3)CCO2)C1 (centres unmarked)	-	-26.36
[H][C@]12CCN(c3ncccc3Cl)C[C@]1(COC)CC[C@@H](N1CCOCC1)C2	-	6.934
CC(=O)N1C[C@H]2CCCN(S(=O)(=O)c3ccc(Cl)s3)[C@H]2C1	0.5319	-
O=C(CC1CC1)N1CC[C@H]2[C@@H]1CCC(=O)N2Cc1ccncc1	21.04	-
COCCOCC(=O)NC(C#N)c1cccc(Cl)c1Cl (centres unmarked)	11.39	11.88
CCNC(=O)CCC(=O)NC1(c2cccc(Br)c2)CC1	13.59	-17.33
COCCN1CCCC12CCCN(c1ncccn1)C2 (centres unmarked)	7.801	13.19
O=C(O)C(F)(F)F.O=C(O)C(F)(F)F.c1csc(CN2CCCC3(COCCN(c4cnccn4)C3)C2)c1 (centres unmarked)	-	5.665
CCc1cc(NCc2cc(CC(C)C)on2)n2nccc2n1	2.799	14.15
COCC1CN(Cc2cccnc2)Cc2nnn(CC3CC3)c21 (centres unmarked)	14.52	-
CC(Cn1cccn1)NCc1nc(-c2cccc(Cl)c2)no1 (centres unmarked)	15.75	14.9
CN(C)S(=O)(=O)N1CC[C@]2(O)CCN(c3cc(C#N)ccn3)C[C@@H]2C1	17.82	-
Cc1nn(C)c2c(=O)n(C(C)C)c(NCCc3ccccc3)nc12	13.32	20.36
CN(Cc1ccncc1)C(=O)CCNS(=O)(=O)c1cccnc1	3.183	10.11
CN(Cc1nc(-c2ccco2)no1)C1CCCN(c2cccnn2)C1 (centres unmarked)	4.225	12.07
O=C(CNC1(c2ccc(Cl)cc2)CCOCC1)NC1CCCC1	15.67	-34.36
CC(C)c1nnc2n1CCN(C(C(N)=O)c1ccc(F)cc1)C2 (centres unmarked)	8.924	-4.371
Cc1ccc(NC2CCN(C(=O)c3ccc4c(c3)CCC4)CC2)nn1	9.972	3.693
Cc1ccc(OCCCC(=O)NC(C)c2nnc3n2CCC3)cc1 (centres unmarked)	13.19	-10.64
[H][C@]12CCC[C@@H](CN3CCCC3)[C@@]1([H])CN(c1cc(OC)ncn1)C2	-	-21.72
C=C(C)COc1ccccc1NC(=O)N1CCOCC(CO)C1 (centres unmarked)	12.37	-18.26
[H][C@]12CC[C@]([H])(CN(Cc3cnc(-c4cccc(OC)c4)s3)C1)N(C)C2=O	-	-3.508
COc1cc(N(C)CCCn2nc(C)cc2C)ncn1	4.878	-26.59
O=C(NCc1ccc(F)cc1)N1CCN(CC(O)C2CC2)CC1 (centres unmarked)	13.91	-
c1ccc2c(c1)CCN2c1nc(N2CCOCC2)c2nn[nH]c2n1	11.75	-13.02
O=C(NCCCNc1ccc(C(F)(F)F)cn1)c1ccc(F)cc1F	17.68	22.94
O=C(Nc1ccccc1)[C@H]1CN2CC[C@H]1C[C@@H]2Cn1cc(CCO)nn1	12.64	-
CN(Cc1ccccc1Br)C(=O)Cn1nc(-c2ccc(F)cc2)oc1=O	4.225	-23.7
Cc1cccc(CN2C[C@@H]3OCCN(CC(=O)N(C)C)[C@@H]3C2)c1	12.47	-
[H][C@]12CCN(Cc3nccs3)[C@@]1([H])C[C@H](C(=O)N1CCN(C)CC1)O2	-	-6.238
Cc1nn(C)c(C)c1C(C)NCc1ccc(OC(C)C)cc1 (centres unmarked)	2.527	-32
COc1ccc2c(C)c(C(=O)NC3CCCOC3)oc2c1 (centres unmarked)	2.892	11.97

The last 8 entries again:

Compound	LdMetRS	Mtb heat-shock
c1ccc2c(c1)CCN2c1nc(N2CCOCC2)c2nn[nH]c2n1	11.75	-13.02
O=C(NCCCNc1ccc(C(F)(F)F)cn1)c1ccc(F)cc1F	17.68	22.94
O=C(Nc1ccccc1)[C@H]1CN2CC[C@H]1C[C@@H]2Cn1cc(CCO)nn1	12.64	-
CN(Cc1ccccc1Br)C(=O)Cn1nc(-c2ccc(F)cc2)oc1=O	4.225	-23.7
Cc1cccc(CN2C[C@@H]3OCCN(CC(=O)N(C)C)[C@@H]3C2)c1	12.47	-
[H][C@]12CCN(Cc3nccs3)[C@@]1([H])C[C@H](C(=O)N1CCN(C)CC1)O2	-	-6.238
Cc1nn(C)c(C)c1C(C)NCc1ccc(OC(C)C)cc1 (centres unmarked)	2.527	-32
COc1ccc2c(C)c(C(=O)NC3CCCOC3)oc2c1 (centres unmarked)	2.892	11.97